PubChem BioAssay AID651640 (Broad Institute, 2012)
Hit rate of the full screen: of about 350,000 compounds, about 6,000 (1.7%) were called active. This list was built around the results that the source calls inconclusive (neither active nor inactive); the mix of calls is not that of the screen. No stated cut-off is given here; in the data, active means CPE inhibition above about 20% (passing the limit was not always enough); inconclusive means no clear call, values can overlap the other calls; tested in BHK-21 cells.

Experiment: protection of cells from dengue 2 killing – plate reader, single concentration, primary screen (AID 651640);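 further: 0% = median of neutral control wells and 100% = median of positive control wells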
Conditions: DENV2-infected cells, cytopathic effect rescue, at 9.99 µM, stronger effect = higher value

| SMILES | CPE inhibition |
| --- | --- |
| COCCNC(=O)C1(C)Cc2c(-c3ccc4c(c3)OCO4)ccnc2O1 (configuration not stated) | inconclusive: 27.9% |
| CCn1c2ccccc2c2cc(NC(=O)COC(=O)c3cc(OC)c(OC)cc3OC)ccc21 | active: 40.9% |
| COc1ccc(S(=O)(=O)Nc2ccc3c(c2)C(=O)N([C@@H](C)CO)C[C@@H](C)[C@@H](CN(C)C(=O)c2ccncc2)OCCCC[C@@H](C)O3)cc1 | inconclusive: 40.8% |
| O=C(Nc1ccc2c(c1)OCO2)N[C@@H]1CC[C@H](CCNC(=O)C2CC2)O[C@H]1CO | inactive: -17.3% |
| CCCCCCCc1c(O)nc(SCCN(C)C)[nH]c1=O | inactive: 1.62% |
| Cc1ccc(S(=O)(=O)N2C[C@H]3[C@H]4C(=O)N(c5ccccc5)C(=O)[C@H]4CC(=O)[C@H]3[C@@H]2c2ccccc2)cc1 | inconclusive: 30.6% |
| COc1ccccc1/C=C1\C(=O)Nc2ccccc21 | inconclusive: 29.9% |
| COc1cc(O)c(C(CCN2CCOCC2)c2cc(OC)c(OC)c(OC)c2)c(OC)c1 (configuration not stated) | inconclusive: 20.2% |
| CCOC(=O)C(=O)N/N=C(/c1ccccc1)c1ccc(OC)cc1 | inactive: 1.86% |
| COCCNC(=O)C[C@@H]1C=C[C@H](NS(=O)(=O)c2ccc(C)cc2)[C@@H](CO)O1 | inactive: -1.64% |
| CCCC#Cc1ccc([C@@H]2[C@@H](CO)N3CCCCN(CC4CCOCC4)C[C@H]23)cc1 | inconclusive: 24.1% |
| O=C(NC1CCCC1)C1c2ccccc2OCC(=O)N1Cc1ccccn1 (configuration not stated) | inactive: 2.6% |
| CC(C)Cc1nc2sc3c(=O)n(N)cnc3c2c2c1COC(C)(C)C2 | inactive: -4.05% |
| C[C@@H]1CCCCO[C@H](CN(C)S(=O)(=O)c2ccccc2)[C@@H](C)CN([C@H](C)CO)C(=O)c2cc(NC(=O)Nc3ccc(C(F)(F)F)cc3)ccc2O1 | inconclusive: 25.8% |
| COc1ccc(NC(=O)N(C)C[C@H]2OCCCC[C@H](C)Oc3ccc(NS(=O)(=O)c4ccc(F)cc4)cc3C(=O)N([C@@H](C)CO)C[C@@H]2C)cc1 | inconclusive: 38.2% |
| CC(=O)C1=C(C)OC(N)=C(C#N)C1c1cc([N+](=O)[O-])ccc1Cl (configuration not stated) | inconclusive: 25.1% |
| CCCNC(=O)c1ccccc1NC(=O)c1ccc2c(c1)NC(=O)C(C)S2 (configuration not stated) | inconclusive: 33.2% |
| O=C(NC1CCCCC1)C1(c2ccccc2)CC1(Cl)Cl (configuration not stated) | inconclusive: 20.9% |
| COc1ccc([Si](C)(C)[C@H]2[C@H](CCO)O[C@@]3(C(=O)N(Cc4ccccc4)c4ccc(N5CCOC5=O)cc43)[C@@H]2C)cc1 | active: 20.5% |
| Cn1cnc(S(=O)(=O)N[C@H]2C=C[C@H](CC(=O)NCC3CCCCC3)O[C@H]2CO)c1 | inconclusive: 45.1% |
| Cc1ccc(S(=O)(=O)c2cc3c(=O)n4ccccc4nc3n(C3CCCC3)c2=N)cc1 | inconclusive: 29.4% |
| CCCNC(=O)N1CC2(C1)[C@H](c1ccccc1)[C@@H](CO)N2C(=O)C1CC1 | inactive: 16.7% |
| CN1C(=O)c2cc(NC(=O)C3CC3)ccc2OC[C@H]2O[C@H](CC(=O)NCC3CCCCC3)CC[C@@H]21 | inactive: 12.2% |
| COc1cc(C(=O)NC(=S)Nc2ccc3c(c2)OCO3)cc(OC)c1OC | inconclusive: 26.9% |

| SMILES | CPE inhibition |
| --- | --- |
| CSc1ccccc1NC(=O)CN(c1ccccc1Br)S(C)(=O)=O | inconclusive: 20.2% |
| Cc1n[nH]c(=O)c2c(NC(=O)CSc3c(Cl)cccc3Cl)oc(C)c12 | inconclusive: 30.8% |
| CCC(c1nnnn1-c1ccc2c(c1)OCCO2)N1CCN(C(=O)C2CCCO2)CC1 (configuration not stated) | inconclusive: 23.7% |
| Nc1cccnc1Sc1ccccc1 | inconclusive: 22% |
| COc1ccccc1OC(C)C(=O)N1CC(=O)Nc2ccccc21 (configuration not stated) | inconclusive: 41% |
| O=C(C[C@@H]1CC[C@H]2[C@@H](COC[C@@H](O)CN2C(=O)c2ccccc2F)O1)NCc1ccccc1 | inconclusive: 62.1% |
| COc1ccc(NC(=O)Nc2ccc3c(c2)C(=O)N([C@H](C)CO)C[C@@H](C)[C@H](CN(C)S(=O)(=O)c2c(C)noc2C)OCCCC[C@H](C)O3)cc1 | inconclusive: 25.3% |
| C=CCn1c(SCC(=O)N2CCCCC2)nnc1-c1ccncc1 | inactive: 6.23% |
| Nc1cc(S(=O)(=O)c2ccc(N3CCCCC3)c(N)c2)ccc1N1CCCCC1 | inconclusive: 21% |
| COCC(=O)Nc1ccc2c(c1)OC[C@@H](C)N(Cc1cccnc1)C[C@@H](C)[C@H](OC)CN(C)C2=O | inconclusive: 56.9% |
| CC(=O)Nc1ccc(NC(=O)CSc2nnc(NC(=O)c3ccccc3F)s2)cc1 | active: 30.3% |
| CN(C)C(=O)C[C@H]1CC[C@@H]2[C@H](COC[C@H](O)CN2CC2CC2)O1 | inconclusive: 57.8% |
| C[C@H]1CCCCO[C@H](CN(C)C(=O)Nc2cccc3ccccc23)[C@@H](C)CN([C@@H](C)CO)C(=O)c2cc(NS(=O)(=O)c3ccccc3)ccc2O1 | inconclusive: 20.2% |
| C[C@H]1CN([C@@H](C)CO)C(=O)Cc2cc(NC(=O)NC3CCCCC3)ccc2O[C@@H]1CN(C)Cc1ccc(-c2ccccc2)cc1 | active: 30.8% |
| CC[C@@H](C)[C@H](CNC)NC[C@@H](Cc1cccc2ccccc12)NCCc1cccc(C(F)(F)F)c1 | inactive: 16% |
| CO[C@H]1CN(C)C(=O)c2cc(NC(C)=O)ccc2OC[C@H](C)N(Cc2nccs2)C[C@@H]1C | active: 32.1% |
| O=C(N/N=C/c1ccc(O)cc1)c1cc(-c2ccc3c(c2)OCO3)n[nH]1 | inactive: -2.69% |
| CC1(C(=O)NCC2CCCCC2)CCN1CCc1ccccc1 (configuration not stated) | inactive: -0.281% |
| Cc1cccc(OCCCn2ccnc2)c1 | inconclusive: 57.7% |
| O=C(N[C@H]1CC[C@H](CCn2cc(-c3ccccn3)nn2)O[C@@H]1CO)c1ccc(F)cc1 | inconclusive: 23.8% |
| CC1=NN(c2ccccc2C(=O)O)C(=O)C1N=Nc1ccccc1 (configuration not stated) | inconclusive: 26% |
| Cc1ccc(-n2c(SCC(=O)c3c(N)n(C4CC4)c(=O)[nH]c3=O)nnc2N2CCOCC2)cc1 | inconclusive: 49.1% |
| Cc1ccc(N2CC(C(=O)Nc3nnc(SCC(=O)NCC4CCCO4)s3)CC2=O)cc1C (configuration not stated) | inconclusive: 21% |
| CC(C)c1ccc(NC2CCCN(C(=O)c3cccs3)C2)cc1 (configuration not stated) | inconclusive: 31.3% |

3 structures from above, arranged by SMILES length, low to high.

| SMILES | CPE inhibition |
| --- | --- |
| CC1(C(=O)NCC2CCCCC2)CCN1CCc1ccccc1 (configuration not stated) | inactive: -0.281% |
| Cc1ccc(N2CC(C(=O)Nc3nnc(SCC(=O)NCC4CCCO4)s3)CC2=O)cc1C (configuration not stated) | inconclusive: 21% |
| Cc1ccc(-n2c(SCC(=O)c3c(N)n(C4CC4)c(=O)[nH]c3=O)nnc2N2CCOCC2)cc1 | inconclusive: 49.1% |

More records follow.

| SMILES | CPE inhibition |
| --- | --- |
| CC(=O)N1CCN(c2ccc(S(=O)(=O)N3CCOCC3)cc2[N+](=O)[O-])CC1 | inconclusive: 35.9% |
| CC1=C(C(=O)N2CCCCCC2)CC(CC(=O)NCC2CCCCC2)C(=O)N1Cc1ccc(F)cc1 (configuration not stated) | inconclusive: 47.3% |
| CCOc1ccccc1N(C(=O)c1snc(C(N)=O)c1N)C(CC)C(=O)NC1CCCC1 (configuration not stated) | inconclusive: 21.8% |
| COc1ccc(S(=O)(=O)N2CCCCC2)cc1NC(=O)c1ccc(N2CCCC2=O)cc1 | inconclusive: 43.6% |
| C[C@H](CO)N1C[C@H](C)[C@@H](CN(C)C)Oc2ccc(NC(=O)CCCCCC(=O)Nc3ccccc3N)cc2C1=O | inconclusive: 42.4% |
| CC(=O)c1ccc(S(=O)(=O)Nc2c(C)nn(C)c2C)cc1 | inconclusive: 38.9% |
| CCc1ccc(/C=C2\SC(=S)N(CCCC(=O)NCCCN3CCOCC3)C2=O)cc1 | inconclusive: 35.9% |
| C[C@@H]1CCCCO[C@H](CN(C)CC2CC2)[C@@H](C)CN([C@H](C)CO)C(=O)c2cc(NC(=O)Nc3ccc(F)cc3)ccc2O1 | inconclusive: 50.9% |
| CCC(=O)Nc1ccc2c(c1)C(=O)N(C)[C@H]1CC[C@@H](CC(=O)N[C@@H](C)c3ccccc3)O[C@@H]1CO2 | inconclusive: 29.1% |
| CN(C)C(=O)C[C@@H]1C[C@@H]2c3cc(NC(=O)CC4CC4)ccc3O[C@@H]2[C@H](CO)O1 | inactive: -2.03% |
| COC(=O)c1cccc(NC(=O)CC2NCCNC2=O)c1 (configuration not stated) | inconclusive: 20.3% |
| COc1ccc(NC(=O)Nc2ccc3c(c2)C(=O)N([C@H](C)CO)C[C@H](C)[C@@H](CN(C)C(=O)Nc2ccc(C(F)(F)F)cc2)OCCCC[C@H](C)O3)cc1 | inconclusive: 22.8% |
| COc1ccc(CCNC(=O)C(=O)NCC2OCCN2S(=O)(=O)c2ccc(F)cc2)cc1OC (configuration not stated) | inconclusive: 23.7% |
| Cc1c(Cc2ccccc2)c(=O)oc2cc(OCC(=O)NCc3ccccn3)ccc12 | inconclusive: 44.9% |
| C/C=C/c1ccc([C@@H]2[C@H](CO)N(C(=O)CN(C)C)C23CN(C(=O)C2CCCCC2)C3)cc1 | inconclusive: 34.3% |
| COc1cccc(OCc2nc3ccccc3[nH]2)c1 | inconclusive: 21.8% |
| COc1ccccc1N1CC(C)(C)C(=O)N(C(=O)c2c(F)cccc2Cl)C1=S | inconclusive: 20.3% |
| Cc1nc2ccccc2c(=O)n1CCc1ccc(O)cc1 | inconclusive: 31.5% |
| Cc1ccc(S(=O)(=O)NCC[C@H]2CC[C@@H](NC(=O)CC3CC3)[C@@H](CO)O2)cc1 | inactive: 2.36% |
| CCN1C(=O)[C@H]2[C@@H](c3ccc(-c4cccc(Cl)c4)cc3)N[C@@](CC(C)C)(C(=O)OC)[C@H]2C1=O | inactive: 14% |
| O=C(C[n+]1cccc2ccccc21)c1ccc(NC(=O)c2ccccc2)cc1 | inconclusive: 22.4% |
| C[C@H]1CN([C@@H](C)CO)C(=O)c2cccc(NC(=O)c3nc4ccccc4s3)c2O[C@H]1CN(C)S(=O)(=O)c1cccs1 | inconclusive: 50.6% |
| COc1ccc(NC(=O)N(C)C[C@H]2Oc3ccc(NS(C)(=O)=O)cc3CC(=O)N([C@H](C)CO)C[C@H]2C)cc1 | inactive: 17% |
| CCc1ccc([C@H]2C(C(=O)O)=C[C@@H](CC3CCCC3)N2S(=O)(=O)c2ccc(C)cc2)cc1 | inconclusive: 21% |
